# Values from PubChem BioAssay AID493246 (Drosophila RNAi Screening Center, 2011)
# Test: 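Identify essential fly genes by loss of cell viability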 (primary screen)
# Cell system: Drosophila Kc and S2R+ cells
# Knock-down reagent: long dsRNA against Drosophila genes
# Measurement: 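Cell number per well after knock-down, printed as raw plate values; calls were based on per-plate z-scores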
# Scale: Kc cell number and S2R+ cell number: higher = more cells remaining
# Hit rule: 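Counted as a hit if cell number falls by a z-score of at least 3 within its plate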
# The deposit covers about 21,000 reagents; this is an unselected part of those with a known target gene and a result. In the full data, 429 (2%) were called active. 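Values are raw and not normalised between plates; calls rest on per-plate z-scores that were not deposited.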 A number with no mark means an inactive call. Names joined by + are all predicted targets of the reagent. Reagent sequences are not shown. Not stated in the record: the amount of reagent, the time to read-out.
gene,DRSC id,"Kc cell number, rep 1","Kc cell number, rep 2","S2R+ cell number, rep 1","S2R+ cell number, rep 2"
Cyp4d8 (Cytochrome P450 4d8),DRSC11131,1.31e6,1.39e6,1.06e6,1.05e6
CG34325,DRSC19802,1.40e6,1.45e6,1.07e6,1.13e6
CG34325,DRSC20200,1.48e6,1.50e6,1.05e6,1.12e6
ND-49 (NADH dehydrogenase (ubiquinone) 49 kDa subunit),DRSC17151,1.31e6,1.35e6,7.91e5,9.18e5
CG2104,DRSC12304,1.36e6,1.56e6,1.22e6,1.29e6
PolG1 (DNA polymerase gamma subunit 1),DRSC03621,1.69e6,1.83e6,1.24e6,1.42e6
M1BP (Motif 1 Binding Protein),DRSC16566,1.43e6,1.67e6,1.04e6,1.14e6
Sbat (Sabbat),DRSC00160,1.44e6,1.48e6,1.03e6,1.13e6
CG8958,DRSC20134,1.48e6,1.50e6,1.08e6,1.24e6
BaraC (Baramicin C),DRSC03885,6.27e5,,9.18e5,
RpL37A (Ribosomal protein L37A),DRSC02899,1.27e6,1.36e6,8.13e5,1.00e6
Strica (Ser/Thr-rich caspase),DRSC04920,1.71e6,1.67e6,1.42e6,1.44e6
Clic (Chloride intracellular channel),DRSC19364,5.84e5,,8.85e5,
meso18E,DRSC20351,1.31e6,1.36e6,1.01e6,1.07e6
AhcyL1 (Adenosylhomocysteinase like 1),DRSC08647,1.57e6,1.44e6,1.17e6,1.40e6
CG11170,DRSC04090,1.25e6,1.35e6,1.03e6,1.12e6
mRpS28 (mitochondrial ribosomal protein S28),DRSC06939,1.54e6,1.54e6,1.14e6,1.19e6
CG34159,DRSC02885,1.14e6,1.35e6,9.14e5,1.02e6
Rab9Db + Rab9Fa,DRSC18445,1.54e6,1.53e6,1.02e6,1.13e6
Pabp2,DRSC07501,8.41e5 (active),9.59e5,5.71e5,6.54e5
Nep1 (Neprilysin 1),DRSC18388,5.62e5,,8.90e5,
Nep1 (Neprilysin 1),DRSC18389,1.31e6,1.45e6,7.57e5,8.94e5
Rpt2 (Regulatory particle triple-A ATPase 2),DRSC16799,7.02e5 (active),9.73e5,7.53e5,8.44e5
CG30026,DRSC05276,1.50e6,1.45e6,1.05e6,1.15e6
CG17567 (retired record),DRSC02627,1.49e6,1.60e6,1.33e6,3.57e5
DJ-1alpha,DRSC07005,1.61e6,1.57e6,1.25e6,1.43e6
"AP-2alpha (Adaptor Protein complex 2, alpha subunit)",DRSC00800,1.58e6,1.59e6,1.15e6,1.29e6
CG34124,DRSC00849,1.62e6,1.60e6,1.08e6,1.26e6
HPS4 (Hermansky-Pudlak Syndrome 4),DRSC06906,1.89e6,1.81e6,1.34e6,1.70e6
Klp61F (Kinesin-like protein at 61F),DRSC08671,1.31e6,1.26e6,6.39e5,8.18e5
CG10993,DRSC19362,1.58e6,1.61e6,1.10e6,1.19e6
Etf-QO (Electron transfer flavoprotein-ubiquinone oxidoreductase),DRSC06111,1.44e6,1.48e6,1.30e6,1.33e6
CG2964,DRSC00554,1.52e6,1.75e6,1.08e6,1.12e6
CG14505,DRSC06476,1.45e6,1.52e6,1.15e6,1.27e6
CG5397,DRSC00683,1.26e6,1.36e6,1.18e6,1.20e6
CG2839,DRSC00544,1.54e6,1.57e6,1.02e6,1.19e6
tum (tumbleweed),DRSC07575,1.66e6,1.67e6,1.19e6,1.40e6
MBD-R2,DRSC14180,1.54e6,1.56e6,1.10e6,1.21e6
rhi (rhino),DRSC05996,1.56e6,1.60e6,1.20e6,1.32e6
CG10286,DRSC12520,1.47e6,1.61e6,1.38e6,1.45e6
wa-cup (walker cup),DRSC12511,1.57e6,1.67e6,1.34e6,1.47e6
CG4617,DRSC18377,5.52e5,,9.02e5,
Ir64a (Ionotropic receptor 64a),DRSC09759,1.30e6,1.40e6,1.14e6,1.12e6
Ir64a (Ionotropic receptor 64a),DRSC09760,1.40e6,1.23e6,1.21e6,1.15e6
CheB38a (Chemosensory protein B 38a),DRSC03205,1.44e6,1.42e6,1.10e6,1.13e6
CG14191,DRSC19546,1.72e6,1.49e6,1.08e6,1.25e6
TfIIA-S (Transcription-factor-IIA-S),DRSC16883,1.52e6,1.51e6,9.76e5,1.09e6
CG32040,DRSC08981,1.50e6,1.56e6,1.19e6,1.31e6
FAM21 (Family with sequence similarity 21),DRSC06623,1.39e6,1.41e6,1.14e6,1.20e6
CG4610,DRSC04477,1.82e6,1.84e6,1.24e6,1.34e6
mxc (multi sex combs),DRSC17819,1.60e6,1.51e6,1.00e6,1.15e6
pav (pavarotti),DRSC08730,1.48e6,1.41e6,1.05e6,1.09e6
Ercc1,DRSC07424,1.21e6,1.30e6,7.41e5,8.26e5
fs(1)Ya (female sterile (1) Young arrest),DRSC18776,5.04e5,,7.03e5,
Syx8 (Syntaxin 8),DRSC10402,1.48e6,1.57e6,1.04e6,1.20e6
Naa30B (N(alpha)-acetyltransferase 30 B),DRSC08245,1.24e6,1.38e6,1.03e6,1.21e6
CG8093,DRSC07078,1.64e6,1.60e6,1.22e6,1.37e6
CG3594,DRSC04393,1.36e6,1.42e6,9.17e5,8.67e5
Myo10A (Myosin 10A),DRSC19834,1.82e6,1.68e6,1.11e6,1.24e6
Myo10A (Myosin 10A),DRSC19837,1.48e6,1.46e6,1.03e6,1.12e6

Already shown: entries from further up.
gene,DRSC id,"Kc cell number, rep 1","Kc cell number, rep 2","S2R+ cell number, rep 1","S2R+ cell number, rep 2"
mRpS28 (mitochondrial ribosomal protein S28),DRSC06939,1.54e6,1.54e6,1.14e6,1.19e6
CG34159,DRSC02885,1.14e6,1.35e6,9.14e5,1.02e6
Rab9Db + Rab9Fa,DRSC18445,1.54e6,1.53e6,1.02e6,1.13e6
Pabp2,DRSC07501,8.41e5 (active),9.59e5,5.71e5,6.54e5
Nep1 (Neprilysin 1),DRSC18388,5.62e5,,8.90e5,
Nep1 (Neprilysin 1),DRSC18389,1.31e6,1.45e6,7.57e5,8.94e5
Rpt2 (Regulatory particle triple-A ATPase 2),DRSC16799,7.02e5 (active),9.73e5,7.53e5,8.44e5
CG30026,DRSC05276,1.50e6,1.45e6,1.05e6,1.15e6
